Results taken from article PMC7489042.
Results are given in words; binding and its absence hold for the method and conditions named. Binding seen in cells or lysates may run through a third protein. Some binding calls cover weakened binding; strength is not graded here.

By UniProt entry, the sequences of proteins in these tests, tags left out. Residues count along the entry.
UniProt P38646, residues 47-679: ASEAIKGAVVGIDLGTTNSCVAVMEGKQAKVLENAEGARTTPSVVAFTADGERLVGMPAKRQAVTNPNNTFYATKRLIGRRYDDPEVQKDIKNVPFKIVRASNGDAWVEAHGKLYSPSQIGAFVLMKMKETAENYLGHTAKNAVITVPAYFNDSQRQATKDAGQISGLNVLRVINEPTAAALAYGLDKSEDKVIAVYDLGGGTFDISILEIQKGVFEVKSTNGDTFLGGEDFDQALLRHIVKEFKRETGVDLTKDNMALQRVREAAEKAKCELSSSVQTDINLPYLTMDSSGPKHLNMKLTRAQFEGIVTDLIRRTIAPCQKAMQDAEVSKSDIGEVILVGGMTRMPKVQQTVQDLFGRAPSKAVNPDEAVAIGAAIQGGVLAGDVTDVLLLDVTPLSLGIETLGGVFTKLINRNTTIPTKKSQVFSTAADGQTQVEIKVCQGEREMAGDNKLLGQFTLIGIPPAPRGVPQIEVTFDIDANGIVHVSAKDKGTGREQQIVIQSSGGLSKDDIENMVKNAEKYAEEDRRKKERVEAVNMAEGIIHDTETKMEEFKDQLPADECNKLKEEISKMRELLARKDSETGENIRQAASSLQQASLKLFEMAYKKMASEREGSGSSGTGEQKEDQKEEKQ
UniProt P10809, residues 27-573: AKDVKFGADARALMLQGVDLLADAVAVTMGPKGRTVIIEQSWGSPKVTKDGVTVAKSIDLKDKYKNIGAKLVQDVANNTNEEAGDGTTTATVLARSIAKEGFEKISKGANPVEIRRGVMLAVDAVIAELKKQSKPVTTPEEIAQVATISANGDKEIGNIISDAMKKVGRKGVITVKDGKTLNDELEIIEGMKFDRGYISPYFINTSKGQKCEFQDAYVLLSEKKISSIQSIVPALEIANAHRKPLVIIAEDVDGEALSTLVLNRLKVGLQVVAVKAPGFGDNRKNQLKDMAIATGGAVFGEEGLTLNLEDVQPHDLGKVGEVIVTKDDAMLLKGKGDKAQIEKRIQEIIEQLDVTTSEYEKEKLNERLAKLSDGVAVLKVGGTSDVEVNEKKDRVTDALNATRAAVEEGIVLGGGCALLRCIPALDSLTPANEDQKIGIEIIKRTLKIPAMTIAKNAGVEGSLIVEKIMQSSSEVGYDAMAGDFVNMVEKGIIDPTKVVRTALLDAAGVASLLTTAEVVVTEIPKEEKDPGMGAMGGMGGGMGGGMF
UniProt P21796: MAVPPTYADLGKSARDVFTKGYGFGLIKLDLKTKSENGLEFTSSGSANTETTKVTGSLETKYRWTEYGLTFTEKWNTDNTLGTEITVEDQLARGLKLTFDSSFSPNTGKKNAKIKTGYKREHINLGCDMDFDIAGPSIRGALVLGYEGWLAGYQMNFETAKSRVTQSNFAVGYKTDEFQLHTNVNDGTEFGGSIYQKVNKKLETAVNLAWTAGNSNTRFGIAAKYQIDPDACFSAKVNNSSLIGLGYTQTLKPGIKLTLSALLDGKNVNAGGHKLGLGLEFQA

Target: mitochondrial heat shock protein 70kD (HSPA9) (human (endogenous in HEK293)) (UniProt P38646)
Experiment: co-IP; co-IP of HSPA9 and its interacting proteins in HEK293 cells, control or overexpressing miPEP133; western blot

| binding | Substance |
| --- | --- |
| binds | Heat shock protein 60 (from UniProt P10809 27-573) |
| binds | Voltage Dependent Anion Channel 1 (from UniProt P21796 1-283) |
